{"source": "the supplement of paper PMC8728848", "assay_in_all_cases": "glycan array binding signal (z-score within array); higher = stronger binding", "conditions_in_all_cases": "glycan notation: IUPAC condensed, linker removed", "key": {"Gal3S(b1-4)Glc": {"biological_target": "Gal3S(b1-4)Glc", "summary_of_the_method": "(§1)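 The binding signal is a Z-score computed within each array and averaged over linkers. Arrays of the same protein sequence at different concentrations or buffers were also averaged together. Data originate from 3228 arrays in the Consortium for Functional Glycomics database, kept only where the protein sequence was available.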"}, "Gal3S(b1-4)Glc6S": {"biological_target": "Gal3S(b1-4)Glc6S", "summary_of_the_method": "as §1"}, "Gal3S(b1-4)GlcNAc": {"biological_target": "Gal3S(b1-4)GlcNAc", "summary_of_the_method": "as §1"}, "[1]": {"biological_target": "Gal3S(b1-4)[Fuc(a1-3)]Glc6S", "summary_of_the_method": "as §1"}, "[2]": {"biological_target": "Gal3S(b1-4)[Fuc(a1-3)]GlcNAc", "summary_of_the_method": "as §1"}, "[3]": {"biological_target": "Gal3S(b1-4)[Fuc(a1-3)]GlcNAc6S", "summary_of_the_method": "as §1"}, "Gal3S4S(b1-4)GlcNAc": {"biological_target": "Gal3S4S(b1-4)GlcNAc", "summary_of_the_method": "as §1"}, "Gal3S6S(b1-4)GlcNAc": {"biological_target": "Gal3S6S(b1-4)GlcNAc", "summary_of_the_method": "as §1"}, "Gal3S6S(b1-4)GlcNAc6S": {"biological_target": "Gal3S6S(b1-4)GlcNAc6S", "summary_of_the_method": "as §1"}, "Gal4S(b1-4)GlcNAc": {"biological_target": "Gal4S(b1-4)GlcNAc", "summary_of_the_method": "as §1"}, "Gal4S6S(b1-4)GlcNAc": {"biological_target": "Gal4S6S(b1-4)GlcNAc", "summary_of_the_method": "as §1"}, "Gal6P(b1-4)GlcNAc": {"biological_target": "Gal6P(b1-4)GlcNAc", "summary_of_the_method": "as §1"}, "Gal6S(b1-3)GlcNAc": {"biological_target": "Gal6S(b1-3)GlcNAc", "summary_of_the_method": "as §1"}, "Gal6S(b1-3)GlcNAc6S": {"biological_target": "Gal6S(b1-3)GlcNAc6S", "summary_of_the_method": "as §1"}, "Gal6S(b1-4)Glc": {"biological_target": "Gal6S(b1-4)Glc", "summary_of_the_method": "as §1"}, "Gal6S(b1-4)Glc6S": {"biological_target": "Gal6S(b1-4)Glc6S", "summary_of_the_method": "as §1"}, "Gal6S(b1-4)GlcNAc": {"biological_target": "Gal6S(b1-4)GlcNAc", "summary_of_the_method": "as §1"}, "Gal6S(b1-4)GlcNAc6S": {"biological_target": "Gal6S(b1-4)GlcNAc6S", "summary_of_the_method": "as §1"}, "GalNAc(a1-3)Gal": {"biological_target": "GalNAc(a1-3)Gal", "summary_of_the_method": "as §1"}, "GalNAc(a1-3)GalNAc": {"biological_target": "GalNAc(a1-3)GalNAc", "summary_of_the_method": "as §1"}, "[4]": {"biological_target": "GalNAc(a1-3)GalNAc(b1-3)Gal(a1-4)Gal(b1-4)Glc", "summary_of_the_method": "as §1"}, "[5]": {"biological_target": "GalNAc(a1-3)GalNAc(b1-3)Gal(a1-4)Gal(b1-4)GlcNAc", "summary_of_the_method": "as §1"}, "GalNAc(b1-3)Gal": {"biological_target": "GalNAc(b1-3)Gal", "summary_of_the_method": "as §1"}, "[6]": {"biological_target": "GalNAc(b1-3)Gal(a1-4)Gal(b1-4)GlcNAc", "summary_of_the_method": "as §1"}, "[7]": {"biological_target": "GalNAc(b1-3)Gal(a1-4)Gal(b1-4)GlcNAc(b1-3)Gal(b1-4)Glc", "summary_of_the_method": "as §1"}, "[8]": {"biological_target": "GalNAc(b1-3)Gal(a1-6)Gal(b1-4)Glc", "summary_of_the_method": "as §1"}, "GalNAc(b1-3)GalNAc": {"biological_target": "GalNAc(b1-3)GalNAc", "summary_of_the_method": "as §1"}, "GalNAc(b1-3)GlcNAc": {"biological_target": "GalNAc(b1-3)GlcNAc", "summary_of_the_method": "as §1"}, "GalNAc(b1-4)Gal(b1-4)Glc": {"biological_target": "GalNAc(b1-4)Gal(b1-4)Glc", "summary_of_the_method": "as §1"}, "GalNAc(b1-4)GlcNAc": {"biological_target": "GalNAc(b1-4)GlcNAc", "summary_of_the_method": "as §1"}, "[9]": {"biological_target": "GalNAc(b1-4)GlcNAc(b1-2)Man", "summary_of_the_method": "as §1"}, "[10]": {"biological_target": "GalNAc(b1-4)GlcNAc(b1-2)Man(a1-3)[GalNAc(b1-4)GlcNAc(b1-2)Man(a1-6)]Man(b1-4)GlcNAc(b1-4)GlcNAc", "summary_of_the_method": "as §1"}, "[11]": {"biological_target": "GalNAc(b1-4)GlcNAc(b1-3)GalNAc(b1-4)GlcNAc", "summary_of_the_method": "as §1"}, "GalNAc(b1-4)GlcNAc6S": {"biological_target": "GalNAc(b1-4)GlcNAc6S", "summary_of_the_method": "as §1"}, "GalNAc(b1-6)GalNAc": {"biological_target": "GalNAc(b1-6)GalNAc", "summary_of_the_method": "as §1"}, "GalNAc3S(b1-4)GlcNAc": {"biological_target": "GalNAc3S(b1-4)GlcNAc", "summary_of_the_method": "as §1"}, "GalNAc3S(b1-4)GlcNAc3S": {"biological_target": "GalNAc3S(b1-4)GlcNAc3S", "summary_of_the_method": "as §1"}}, "note": "The list shows a part of the results."}
{"binder": "GS13814A-bth-462-26-462 (Bacteroides thetaiotaomicron) (protein) DDRDNLMVNDQIGLLHSTYTETEIFRGMDTPYQLFVIKSGKGKQETEVSISVDETVLQSYNTDNGTSIQLLPSDCYTILQPALRLNDSDYRKAFDIKWNADRLSDLLSTGKEYGLPIQMSVVQNFISADDERLKTIIVPTIKEPYLQMDVPGMSPVTDFMPTFGDLNERELFVKIRTNYSNDEDISFQIEVDPQLVIDYNTAHGTAYKMLPESSFTVDNKGVILTGMKETFIKIKYHKKGLIPEEGTYLFGDYVLPLRITSVSKYGISPDAASKLYTVKFQPDPIDKKGWSVIDFNNCCTQDGGWYLNMGWGVESLIDNNPGTQWLCRWDVKEPLPYYFVFDMGKEYTLFRFGFANPVAPAAHVWAGTSKAGYVEASIDNENWVKLKDWTSPKIGEPNVNMDVPATQARYIRFVITDTYPTYDGLRVSLGEVYAWGM", "values": [{"measurement": "glycan array binding signal (z-score)", "setting": "Gal3S(b1-4)Glc", "result": -0.952}, {"measurement": "glycan array binding signal (z-score)", "setting": "Gal3S(b1-4)Glc6S", "result": -0.017}, {"measurement": "glycan array binding signal (z-score)", "setting": "Gal3S(b1-4)GlcNAc", "result": -0.34}, {"measurement": "glycan array binding signal (z-score)", "setting": "[1]", "result": 0.367}, {"measurement": "glycan array binding signal (z-score)", "setting": "[2]", "result": 0.598}, {"measurement": "glycan array binding signal (z-score)", "setting": "[3]", "result": -0.372}, {"measurement": "glycan array binding signal (z-score)", "setting": "Gal3S4S(b1-4)GlcNAc", "result": 0.205}, {"measurement": "glycan array binding signal (z-score)", "setting": "Gal3S6S(b1-4)GlcNAc", "result": 1.62}, {"measurement": "glycan array binding signal (z-score)", "setting": "Gal3S6S(b1-4)GlcNAc6S", "result": 2.45}, {"measurement": "glycan array binding signal (z-score)", "setting": "Gal4S(b1-4)GlcNAc", "result": 1.27}, {"measurement": "glycan array binding signal (z-score)", "setting": "Gal4S6S(b1-4)GlcNAc", "result": 1.02}, {"measurement": "glycan array binding signal (z-score)", "setting": "Gal6P(b1-4)GlcNAc", "result": -0.335}, {"measurement": "glycan array binding signal (z-score)", "setting": "Gal6S(b1-3)GlcNAc", "result": -0.522}, {"measurement": "glycan array binding signal (z-score)", "setting": "Gal6S(b1-3)GlcNAc6S", "result": -0.024}, {"measurement": "glycan array binding signal (z-score)", "setting": "Gal6S(b1-4)Glc", "result": 0.141}, {"measurement": "glycan array binding signal (z-score)", "setting": "Gal6S(b1-4)Glc6S", "result": -0.606}, {"measurement": "glycan array binding signal (z-score)", "setting": "Gal6S(b1-4)GlcNAc", "result": 0.113}, {"measurement": "glycan array binding signal (z-score)", "setting": "Gal6S(b1-4)GlcNAc6S", "result": -0.754}, {"measurement": "glycan array binding signal (z-score)", "setting": "GalNAc(a1-3)Gal", "result": -0.303}, {"measurement": "glycan array binding signal (z-score)", "setting": "GalNAc(a1-3)GalNAc", "result": -0.59}, {"measurement": "glycan array binding signal (z-score)", "setting": "[4]", "result": -0.801}, {"measurement": "glycan array binding signal (z-score)", "setting": "[5]", "result": -1.3}, {"measurement": "glycan array binding signal (z-score)", "setting": "GalNAc(b1-3)Gal", "result": -0.506}, {"measurement": "glycan array binding signal (z-score)", "setting": "[6]", "result": 2.74}, {"measurement": "glycan array binding signal (z-score)", "setting": "[7]", "result": -0.981}, {"measurement": "glycan array binding signal (z-score)", "setting": "[8]", "result": -0.576}, {"measurement": "glycan array binding signal (z-score)", "setting": "GalNAc(b1-3)GalNAc", "result": 0.545}, {"measurement": "glycan array binding signal (z-score)", "setting": "GalNAc(b1-3)GlcNAc", "result": -0.957}, {"measurement": "glycan array binding signal (z-score)", "setting": "GalNAc(b1-4)Gal(b1-4)Glc", "result": -1.17}, {"measurement": "glycan array binding signal (z-score)", "setting": "GalNAc(b1-4)GlcNAc", "result": 1.57}, {"measurement": "glycan array binding signal (z-score)", "setting": "[9]", "result": 0.168}, {"measurement": "glycan array binding signal (z-score)", "setting": "[10]", "result": -0.618}, {"measurement": "glycan array binding signal (z-score)", "setting": "[11]", "result": -0.079}, {"measurement": "glycan array binding signal (z-score)", "setting": "GalNAc(b1-4)GlcNAc6S", "result": -0.003}, {"measurement": "glycan array binding signal (z-score)", "setting": "GalNAc(b1-6)GalNAc", "result": -0.44}, {"measurement": "glycan array binding signal (z-score)", "setting": "GalNAc3S(b1-4)GlcNAc", "result": -0.305}, {"measurement": "glycan array binding signal (z-score)", "setting": "GalNAc3S(b1-4)GlcNAc3S", "result": -0.469}]}
